From PubChem BioAssay AID493014 (National Center for Advancing Translational Sciences (NCATS), 2011) come the findings set out here.

Molecules are shown by their SMILES. This is one part of the list. These are further read-outs of the screen, such as a control signal, another cell line or another target. No call is given for them. The list favours compounds with an active or inconclusive main result. Potencies come from curve fits of mixed quality, noted in brackets.

The nature of the test: qHTS Assay to Find Inhibitors of Chronic Active B-Cell Receptor Signaling. To be noted: ABC-DLBCL IkBa-CBG/CBR reporter, luminescence ratio (green luciferase fused to IkBa over red control in TMD8 lymphoma cells), 4 h. The procedure, abridged: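 Doxycycline induced both beetle luciferases in TMD8 lymphoma cells; IKK-driven degradation limits the IkappaBalpha-fused green signal, while red luminescence normalises for cell number and nonspecific effects. Compounds tested up to 46 uM, 4 hrs.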

Setting [1] is: measured here: CBR red luminescence, cell number.
The mark [2] stands for this setting: measured here: IkBa-CBG green luminescence.

Regarding `CC(=O)Nc1ccc(N2CCN(Cc3ccccc3F)CC2)cc1`, under setting [1], the AC50 was 0.0651 µM [rising, full curve, poor fit]. `O=C(CSc1ccccc1)Nc1nc2ccccc2[nH]1`: the AC50 under setting [1] is 10.3 µM [falling, partial curve].

`CCS(=O)(=O)Nc1ccc(C2=NN(C(=O)c3ccco3)C(c3cccs3)C2)cc1` (stereo unspecified): under setting [1], the AC50 was 11.2 µM [falling, partial curve]. Still for that read-out and setting: the value for `Cc1cccc(C(=O)NC(=S)NNC(=O)COc2c(C)cccc2C)c1` was 5.8 µM [rising, partial curve, poor fit]; that for `O/N=C/c1ccc(-c2ccccc2OC(F)(F)F)o1` was 12.6 µM [rising, partial curve, poor fit]. In the case of `C[n+]1cc[nH]c1SCC(=O)c1ccccc1`, the AC50 under setting [1] was 23.1 µM [falling, partial curve, poor fit]. On the same count and under the same terms, as for `CCOC(=O)c1c(NC(=O)C2=C(C)NC(=S)NC2c2ccccc2C(F)(F)F)sc(C)c1C` (stereo unspecified), the figure is 16.4 µM [rising, partial curve]; as for `O=C(Nc1ccc2c(c1)OCCO2)c1ccc(Br)c(S(=O)(=O)N2CCOCC2)c1`, 6.31 µM [rising, partial curve, poor fit]; as for `CNC(=O)CC(CC(=O)c1ccccc1)c1ccccc1` (stereo unspecified), 3.66 µM [falling, partial curve, poor fit]. With `Cc1ccc(C(=O)Oc2ccc(Cl)c3cccnc23)cc1[N+](=O)[O-]`, the AC50 runs as follows: under setting [1], 7.08 µM [rising, partial curve]; under setting [2], 7.94 µM [falling, partial curve]. `CN(C)S(=O)(=O)Oc1cccc(C(=O)Nc2ccccc2Cl)c1`: the AC50 under setting [1] is 22.4 µM [falling, single point]. Same read-out and setting: as for `CC(=O)Nc1ccc(Nc2nc(C)c([N+](=O)[O-])c(Nc3ccc(NC(C)=O)cc3)n2)cc1`, the figure is 0.206 µM [falling, full curve]; as for `CCC1CCCCN1CC(=O)c1c(C)[nH]c2ccc(OC)cc12` (stereo unspecified), 3.16 µM [falling, single point]; as for `Cc1ccc2nc(Nc3nc(CSc4nnc(C)s4)cc(=O)[nH]3)nc(C)c2c1`, 2.51 µM [falling, full curve, poor fit]. For `CCOc1ccc(C2N(c3cc(Cl)ccc3OC)C(=O)C3CCCN32)cc1OC` (stereo unspecified), the AC50 under setting [1] is 14.1 µM [rising, partial curve, poor fit]. As to `C/C(=N\NC(=O)COc1ccc2ccccc2c1)c1cccs1`, the AC50 under setting [1] is 22.4 µM [rising, single point].

In the case of `COCCNS(=O)(=O)c1ccc(-c2ccc(S(=O)(=O)NCCOC)cc2)cc1`, the AC50 under setting [1] was 5.62 µM [rising, partial curve, poor fit]. Take `N/C(=N\c1nc2ccccc2o1)NC(=O)c1ccccc1F`: the AC50 under setting [1] was 2.82 µM [falling, partial curve]. Consider `CC(C)N(C(=O)[C@H]1C[C@H](CC(=O)NCC23CC4CC(CC(C4)C2)C3)C(=O)N2CCc3c([nH]c4ccc(Cl)cc34)[C@]12C)C(C)C`, for which the concentration at half-maximal activity (AC50) under setting [1] is 6.51 µM [rising, partial curve, poor fit]. The same measure, in the same setting: the value for `COc1ccc(-c2nnc(SCC(=O)Nc3cc(F)ccc3C)o2)cc1` was 0.092 µM [falling, full curve, poor fit]; that for `CCN(CC)CCN(C(=O)/C=C/c1cccs1)c1nc2ccc(F)cc2s1` was 12.6 µM [falling, single point].

`C/C(CC(=O)Nc1ccc(Cl)c(Cl)c1)=N\NC(N)=S`: the concentration at half-maximal activity (AC50) under setting [1] is 5.62 µM [falling, partial curve, poor fit]. Regarding `CCC(C)c1ccc(OCc2ccc(C(=O)O)o2)cc1` (stereo unspecified), the AC50 under setting [1] is 10 µM [falling, partial curve, poor fit].

As for `CN(CCCNC(=O)c1ccc(N2CCCC2=O)cc1)c1ccccc1`, the AC50 under setting [1] was 8.2 µM [rising, partial curve, poor fit].

In the case of `COc1cccc(NC(=O)Nc2ccc3c(c2)OCO3)c1`, the AC50 under setting [1] was 10 µM [falling, partial curve]. On to `CCOc1cc(/C=C2/NC(=O)N(CC(=O)OC)C2=O)ccc1OC`, for which the AC50 under setting [1] is 5.01 µM [falling, partial curve, poor fit]. On the same count and under the same terms, the value for `COc1cc2c(C(=O)N3CCN(c4cccc(C(F)(F)F)c4)CC3)cn(CC(C)C)c(=O)c2cc1OC` was 11.2 µM [falling, partial curve, poor fit]. For `O=C(Nc1ccc2c(c1)N(S(=O)(=O)c1cccs1)CCC2)c1c(F)cccc1F`, the AC50 under setting [1] was 20.6 µM [rising, partial curve, poor fit]. The same measure, in the same setting: as for `COc1ccc(CCC(=O)OCC(=O)Nc2c(C)nn(-c3ccccc3)c2C)cc1`, the figure is 0.651 µM [rising, full curve, poor fit]; as for `COc1cccc(Nc2nc(C)nc3c2oc2ccccc23)c1`, 1.58 µM [falling, full curve, poor fit]; as for `CC(=O)Nc1ccc(NC(=O)C(C)OC(=O)C2(c3ccc(Cl)cc3)CCCC2)cc1` (stereo unspecified), 0.58 µM [rising, full curve, poor fit]. Still for that read-out and setting: the value for `COCCCn1c(-c2ccccc2Cl)n[nH]c1=S` was 2.91 µM [rising, partial curve, poor fit]. The same measure, in the same setting: the value for `Cc1nc2c(ccc3c([N+](=O)[O-])cccc32)c(C)c1C` was 25.1 µM [falling, partial curve, poor fit].

With `Cc1ccc(C(=O)Nc2ccc(Cl)cn2)cc1`, the half-maximal activity concentration (AC50) under setting [1] is 10 µM [falling, partial curve, poor fit]. On the same count and under the same terms, as for `Cc1ccc(/C=C/C(=O)O)cc1S(=O)(=O)Nc1ccc(C(=O)O)cc1`, the figure is 0.1 µM [rising, full curve, poor fit]; as for `COc1ccc(-c2csc(NC(=O)c3ccccc3NS(=O)(=O)c3ccc(C)cc3)n2)cc1`, 29.1 µM [falling, single point].

For `O=C1C=CC(=O)N1CCNc1ncc(C(F)(F)F)cc1Cl`, the AC50 by setting is: under setting [1], 5.01 µM [falling, full curve]; under setting [2], 35.5 µM [rising, single point]. As to `O=C(NCc1cccnc1)c1cccc(S(=O)(=O)Nc2cccc(Cl)c2)c1`, the AC50 under setting [1] is 18.4 µM [falling, single point].

With `O=C(Nc1ccccc1F)c1cc2nc(C(F)F)cc(C(F)F)n2n1`, under setting [1], the AC50 was 23.1 µM [falling, single point].
